# From PubChem BioAssay AID1794845 (National Center for Advancing Translational Sciences (NCATS), 2023)
# The chains behind the UniProt entries cited, without tags or fusion partners. Where a name states a change or a piece, a line headed by the entry shows the natural chain unless it says otherwise.
# UniProt C7C422: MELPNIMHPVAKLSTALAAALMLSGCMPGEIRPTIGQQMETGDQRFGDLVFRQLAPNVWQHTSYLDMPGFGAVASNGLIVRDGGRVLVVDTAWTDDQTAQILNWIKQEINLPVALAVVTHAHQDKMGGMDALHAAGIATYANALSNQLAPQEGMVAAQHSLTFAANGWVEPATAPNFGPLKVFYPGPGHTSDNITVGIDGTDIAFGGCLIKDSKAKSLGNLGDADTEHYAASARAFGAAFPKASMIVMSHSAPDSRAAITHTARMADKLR
# In all, about 6,900 compounds went through this assay and fewer than 10 were called active. Calls come from the whole dose curve; as a rule, active = well fitted curve in the direction sought with a large enough effect; inconclusive = small, poorly fitted or top-dose-only effect, or another doubt; inactive = no such curve, though single readings can be large or run the other way. The list shows a part of the results.
# Target: Metallo-beta-lactamase type 2 (Klebsiella pneumoniae) (UniProt C7C422)
# Assay: qHTS to identify inhibitors of the New Delhi Metallo-beta-lactamase (NDM): primary screen against the NCATS Gemini Collection; note: % of control where 0% means no effect
# Conditions: NDM-1 enzyme, meropenem hydrolysis, absorbance 300 nm; at 38.4 µM (top of the series) unless noted
# From the text: Assay Submitter (PI): James Inglese Ph.D., Patricia Dranchak Ph.D., Mahesh Aitha Ph.D. Assay Development and Screening Technology Laboratory (ADST) National Center for Advancing Translational Sciences (NCATS), Rockville, MD National Institute of Health (NIH), Bethesda, Maryland The metallo-beta-lactamases (MBL) are a main antibiotic resistance mechanism evolved by bacteria. There is an urgent clinical need for MBL inhibitors to mitigate this growing threat. To support a machine-based learning study, qHTS has been used to experimentally test inhibitors identified by prediction tools.
# PROTOCOL TABLE (as described by Inglese et al., 2007) SEQUENCE No. (e.g., 1, 2, 3, etc.); […] (e.g., enzyme, Incubation, Reagent, etc.); VALUE; DESCRIPTION 1; NDM-1; 4 uL of 3 nM enzyme [2 nM final] in 50 mM HEPES (pH 7.0), 1 uM […], 0.01% Tween20; Use BioRaptr to dispense into Aurora black, clear bottom low base 1536-well plates 2; Compounds; 23 nL; Use Pin Tool (Wako) to transfer DMSO control and library compounds in DMSO 3; Incubate; >30 min 4; Reagent; 2 uL of 150 uM meropenem [50 uM final] 5; Incubate; 30 min. 6; Detector; Absorbance at 300 nm (bandwidth = 5 nm, 25 flashes/well) on Tecan Infinity NOTES (numbers refer to sequence above) 1; Column 1 of each plate received assay buffer without enzyme and columns 2-48 received enzyme for a final assay concentration of 2 nM. 2; Control plate contained DMSO in columns 1, 2, 3, and 4. 3; Compound interaction with enzyme. 4; Meropenem substrate was prepared in the same assay buffer as step 1 for a final assay concentration of 50 uM and added to all wells across the assay plates. 5; Substrate interaction with enzyme, plateau phase of kinetics. 6; Default reader settings were applied for absorbance read at 300 nm, bandwidth = 5 nm, 25 flashes/well. References: Inglese J, Shamu CE, Guy RK. 2007. Reporting data from high-throughput screening of small-molecule libraries. Nat Chem Biol. doi:10.1038/nchembio0807-438 Yasgar A, Shinn P, Jadhav A, Auld D, Michael S, Zheng W, Austin CP, Inglese J, Simeonov A. 2008. Compound Management for Quantitative High-Throughput Screening. J Lab Autom 13:79 - 89. doi:10.1016/j.jala.2007.12.004
row,Compound,activity % (negative = inhibition)
1,N#Cc1cncc(N2CC3CCC(C2)N3CC(F)(F)F)c1,inactive: 2.91% [at 57.5 µM]
2,N[C@H]1[C@H](O)[C@@H](N2CCCCC2)[C@@H]2OC[C@H]1O2,inactive: -1.36% [at 77.1 µM]
3,COc1ccc(-c2cc([C@H]3CN4CC[C@H]3C[C@@H]4COC(=O)Nc3ccccc3)n(C)n2)cc1,inactive: 10.2%
4,CCN(C1CCOCC1)C1CNC1,inactive: 2.54%
5,CN(CCc1ccccn1)C[C@H]1CN2CC[C@H]1C[C@@H]2CNC(=O)c1ccco1,inactive: -12.1% [at 57.5 µM]
6,CC(=O)c1cccc(NC(=O)NC[C@H]2C[C@@H]3CCN2C[C@@H]3c2cc(-c3ccc(F)cc3)nc(C)n2)c1,inactive: 8.74%
7,O=C1NC[C@H]2CN(C3CCOCC3)CCN12,inactive: -0.184% [at 77.1 µM]
8,CN1c2cccnc2CNCC[C@H]1CO,inactive: 0.229% [at 77.1 µM]
9,COc1ccc(C(=O)NC[C@H]2C[C@@H]3CCN2C[C@@H]3c2cc(-c3cccs3)nn2C)cc1,inactive: -0.61%
10,CN(CCc1ccccn1)C[C@H]1CN2CC[C@H]1C[C@@H]2CNC(=O)Nc1ccsc1,inactive: -2.02% [at 57.5 µM]
11,Nc1ncccc1CN1CC[C@H]2NCCC[C@]2(C(=O)O)C1,inactive: 2.6%
12,COCC1CN(C2CCC2)CC12CCN(Cc1ccncc1)CC2 (centres undefined),inactive: -6.91%
13,Cc1nc(CCN)no1,inactive: 18.4%
14,COc1ccc(-c2cc([C@H]3CN4CC[C@H]3C[C@@H]4COC(=O)NC3CCCCC3)nc(C)n2)cc1,inactive: 1.01%
15,COCC1CN(Cc2ccsc2)CC12CCNCC2 (centres undefined),inactive: 0.108%
16,CC(=O)NC[C@H]1C[C@@H]2CCN1C[C@@H]2c1cc(-c2ccc3ccccc3c2)nn1C,inactive: 2.52% [at 57.5 µM]
17,CN1C(=O)[C@H]2CN(Cc3ccsc3)C[C@H]2C1=O,inactive: 0.493%
18,O=C(Nc1ccc2n(c1=O)C[C@H]1C[C@@H]2CN(CC2CCCCC2)C1)C1CCCCC1,inactive: 6.12% [at 57.5 µM]
19,Cc1ncc2c(n1)C[C@@H]1CC[C@H]2N1C(=O)C1CCC1,inactive: 7.25%
20,Cc1cnc(N2CC3CCC(C2)N3CC(F)(F)F)c([N+](=O)[O-])c1,inactive: 3.49%
21,O=C(Nc1ccc(=O)n2c1[C@@H]1C[C@@H](CN(S(=O)(=O)c3ccccc3)C1)C2)c1ccco1,inactive: 13.4%
22,CSCC(=O)Nc1ccc(=O)n2c1[C@@H]1C[C@@H](CN(C(=O)NC3CCCCC3)C1)C2,inactive: 6.87% [at 57.5 µM]
23,O=C(Nc1ccccc1)C1=NO[C@@H]2CN(Cc3ccccn3)C[C@H]12,inactive: 9.83% [at 57.5 µM]
24,O=C(C1CCCCC1)N1C[C@@H]2C[C@H](C1)c1c(-c3cncnc3)ccc(=O)n1C2,inactive: 3.13% [at 57.5 µM]
25,COCc1cn(C[C@H]2C[C@@H]3CCN2C[C@@H]3C(=O)NCc2ccco2)nn1,inactive: 0.982% [at 57.5 µM]
26,O=C1NCCCCCCN[C@H]2CCC[C@@H]12,inactive: -9.92%
27,CC(=O)c1ccc(NC(=O)OC[C@H]2C[C@@H]3CCN2C[C@@H]3c2cc(-c3cccs3)nn2C)cc1,inactive: 1.88%

row,Compound,activity % (negative = inhibition)
1,C#C[C@H]1CN2CC[C@H]1C[C@@H]2CNS(=O)(=O)c1cccs1,inactive: 0.508% [at 57.5 µM]
2,Cc1ccc([C@H]2C[C@@H](O)[C@@H](O)[C@@H]2NCC(C)C)cc1,inactive: 11.3% [at 77.1 µM]
3,CC(C)NC(=O)NC[C@H]1C[C@@H]2CCN1C[C@@H]2CN1CCC(Cc2ccccc2)CC1,inactive: 0.575% [at 57.5 µM]
4,C#C[C@H]1CN2CC[C@H]1C[C@@H]2CNC(=O)COCC(=O)O,inactive: -1.02% [at 77.1 µM]
5,O=c1c(-c2cccc(C(F)(F)F)c2)ccc2n1C[C@H]1C[C@@H]2CN(S(=O)(=O)c2cccs2)C1,inactive: 3.39%
6,Cn1nc(-c2cccs2)cc1[C@H]1CN2CC[C@H]1C[C@@H]2CNC(=O)Nc1ccccc1,inactive: 2.08% [at 57.5 µM]
7,O=C(c1ccncc1)N1C2CCC1CN(Cc1cccnc1)C2,inactive: 27.3%
8,Cn1nc(C2CCCNC2)n(C2CCCC2)c1=O (centres undefined),inactive: 2.04%
9,O=C(O)C1=NOC2CN(Cc3cncs3)CC12 (centres undefined),inactive: 10.9% [at 57.5 µM]
10,COc1ccc(-c2cc3c(cn2)CN(C)CCN3)cn1,inactive: 26.9% [at 77.1 µM]
11,O[C@@H]1CNC2Cc3c([nH]c4ccccc34)C1C2 (some centres undefined),inactive: -11.6%
12,Cn1cnc(S(=O)(=O)N2[C@H]3CC[C@@H]2c2cnc(-c4ccccc4)nc2C3)c1,inactive: 6.7%
13,CCC1(N2CCN(C(=O)COc3ccc(Cl)cc3C)CC2)CCN(C(=O)NC)C1 (centres undefined),inactive: -1.67%
14,CN1CCC(NCC2(CO)C[C@@H](O)[C@@H](O)C2)CC1 (some centres undefined),inactive: -4.08% [at 57.5 µM]
15,Cc1noc(-c2ccc(N3CC4CC(C3)c3cccc(=O)n3C4)nc2)n1 (centres undefined),inactive: 18.7%
16,Cn1nc(-c2cccs2)cc1[C@H]1CN2CC[C@H]1C[C@@H]2CNS(C)(=O)=O,inactive: 6.98% [at 57.5 µM]
17,CN(C)CC(=O)Nc1ccc2n(c1=O)C[C@H]1C[C@@H]2CN(C(=O)c2cccnc2)C1,inactive: 20.6% [at 57.5 µM]
18,CS(=O)(=O)N1C[C@H]2CCN(Cc3ccncc3F)C[C@H]21,inactive: -1.76%
19,N#CC1(c2ccccc2)CCN(C(=O)c2cn(-c3ccccc3)nn2)CC1,inactive: 5.87%
20,CNCc1cn(C[C@H]2CC3CCN2C[C@@H]3C(=O)Nc2ccccc2)nn1 (some centres undefined),inactive: 0.624% [at 57.5 µM]
21,CCCc1nc(C)cc(N2CCC3(CC2)CNC(C(=O)O)C3)n1 (centres undefined),inactive: 24.9%
22,O=C(Cc1ccc(Cl)cc1)N1CCN(C2CCN(Cc3ccccn3)C2=O)CC1 (centres undefined),inactive: 0.0207%
23,c1cncc(C2=NOC3(CCN(C4COC4)CC3)C2)c1,inactive: -0.206% [at 57.5 µM]
24,Cc1nc(-c2cccs2)cc([C@H]2CN3CC[C@H]2C[C@@H]3COC(=O)Nc2ccc(C(C)C)cc2)n1,inactive: 4.42%
25,COCCN1C(=O)CS(=O)(=O)C12CCNCC2,inactive: 7.59%
26,Cc1cc(CN2CCC23Cc2ccccc2NC3=O)no1 (centres undefined),inactive: 2.62% [at 57.5 µM]
27,NC(=O)CN1C(=O)CO[C@H]2CN(Cc3ccccn3)C[C@H]21,inactive: 3% [at 77.1 µM]

# A run of entries from further up, as a working copy:
row,Compound,activity % (negative = inhibition)
17,CN1C(=O)[C@H]2CN(Cc3ccsc3)C[C@H]2C1=O,inactive: 0.493%
18,O=C(Nc1ccc2n(c1=O)C[C@H]1C[C@@H]2CN(CC2CCCCC2)C1)C1CCCCC1,inactive: 6.12% [at 57.5 µM]
19,Cc1ncc2c(n1)C[C@@H]1CC[C@H]2N1C(=O)C1CCC1,inactive: 7.25%
20,Cc1cnc(N2CC3CCC(C2)N3CC(F)(F)F)c([N+](=O)[O-])c1,inactive: 3.49%
21,O=C(Nc1ccc(=O)n2c1[C@@H]1C[C@@H](CN(S(=O)(=O)c3ccccc3)C1)C2)c1ccco1,inactive: 13.4%
22,CSCC(=O)Nc1ccc(=O)n2c1[C@@H]1C[C@@H](CN(C(=O)NC3CCCCC3)C1)C2,inactive: 6.87% [at 57.5 µM]
23,O=C(Nc1ccccc1)C1=NO[C@@H]2CN(Cc3ccccn3)C[C@H]12,inactive: 9.83% [at 57.5 µM]
24,O=C(C1CCCCC1)N1C[C@@H]2C[C@H](C1)c1c(-c3cncnc3)ccc(=O)n1C2,inactive: 3.13% [at 57.5 µM]
25,COCc1cn(C[C@H]2C[C@@H]3CCN2C[C@@H]3C(=O)NCc2ccco2)nn1,inactive: 0.982% [at 57.5 µM]
26,O=C1NCCCCCCN[C@H]2CCC[C@@H]12,inactive: -9.92%
27,CC(=O)c1ccc(NC(=O)OC[C@H]2C[C@@H]3CCN2C[C@@H]3c2cc(-c3cccs3)nn2C)cc1,inactive: 1.88%
1,C#C[C@H]1CN2CC[C@H]1C[C@@H]2CNS(=O)(=O)c1cccs1,inactive: 0.508% [at 57.5 µM]
2,Cc1ccc([C@H]2C[C@@H](O)[C@@H](O)[C@@H]2NCC(C)C)cc1,inactive: 11.3% [at 77.1 µM]

# The list continues.

row,Compound,activity % (negative = inhibition)
1,CCC1(N2CCN(C(=O)Cc3c[nH]c4ccccc34)CC2)CCN(S(C)(=O)=O)C1 (centres undefined),inactive: 2.15%
2,C=C[C@H]1CN2CC[C@H]1C[C@@H]2CNC(=O)N1CCOCC1,inactive: 9.21% [at 77.1 µM]
3,O=c1ccc(-c2ccccc2F)c2n1C[C@H]1C[C@@H]2CN(Cc2ccc(CO)o2)C1,inactive: 5.85% [at 57.5 µM]
4,COCCO[C@H]1COCCN(C2CCOCC2)C1,inactive: 7.41% [at 77.1 µM]
5,COc1ccc(-c2ccc3n(c2=O)C[C@H]2C[C@@H]3CN(S(C)(=O)=O)C2)cc1,inactive: 14.3% [at 57.5 µM]
6,Cc1cc(CN2CCC3(C2)C(=O)N(C)c2ccccc23)no1 (centres undefined),inactive: 0.144% [at 57.5 µM]
7,N#Cc1cccc(-c2ccc3n(c2=O)C[C@H]2C[C@@H]3CN(C(=O)c3ccc(F)cc3)C2)c1,inactive: 22.3% [at 57.5 µM]
8,CC(=O)N1CCC2(C1)N=C(c1cccnc1)C(=O)N2 (centres undefined),inactive: 2.36% [at 57.5 µM]
9,CC(C)C1=NOC2(CCCN(Cc3ccccn3)C2)C1 (centres undefined),inactive: 2.29% [at 57.5 µM]
10,C=C[C@H]1CN2CC[C@H]1C[C@@H]2CNC(=O)Nc1ccc(Br)cc1,inactive: 6.61% [at 57.5 µM]
11,O=C1N(Cc2cccnc2)C[C@H]2CN(C3CCC3)CCN12,inactive: -2.04% [at 77.1 µM]
12,Cn1nc(C2CCCC2)cc1[C@H]1CN2CC[C@H]1C[C@@H]2CNC(=O)c1cccs1,inactive: 15.2% [at 57.5 µM]
13,COc1ccc(S(=O)(=O)N2C[C@@H]3C[C@H](C2)c2c(-c4cccs4)ccc(=O)n2C3)cc1,inactive: 3.88%
14,CCCn1cc(C(=O)NC(C(=O)O)c2ccccc2C(F)(F)F)c(C)n1 (centres undefined),inactive: 2.92%
15,O=C(Nc1ccc2n(c1=O)C[C@H]1C[C@@H]2CN(c2ncccn2)C1)c1ccccc1,inactive: 10.8% [at 57.5 µM]
16,CCCSc1ncc(CN2CC[C@H]3CNC[C@H]32)cn1,inactive: 15.9%
17,O=C(NC1CCCCC1)OC[C@H]1C[C@@H]2CCN1C[C@@H]2c1cc(C2CCCC2)nc(-c2ccncc2)n1,inactive: 96.4%
18,COCC1CN(C)CC12CCN(C(=O)c1cncc(C)c1)CC2 (centres undefined),inactive: -5.18%
19,NC(=O)c1ccc(-c2cccc3c2CCNC3)s1,inactive: 3.49%
20,COc1cc2c(cc1CCc1ccccc1)N(C(=O)C(C)C)CC21CCN(C(C)=O)CC1,inactive: 8.68% [at 57.5 µM]
21,Cc1nc(-c2ccco2)cc([C@H]2CN3CC[C@H]2C[C@@H]3CNS(C)(=O)=O)n1,inactive: 22% [at 57.5 µM]
22,COc1ccccc1-n1cc(C2=CCN(CCOCCO)CC2)cn1,inactive: 8.21%
23,CS(=O)(=O)N1C[C@H]2CCN(Cc3ccc[nH]3)C[C@H]21,inactive: 29.3%
24,O=C1Nc2ccccc2CC12CCN(Cc1cccnc1)C2 (centres undefined),inactive: -9.58% [at 57.5 µM]
25,CCc1cnc(N2CCC3(CC2)C(=O)Nc2cc(OCC4CC4)c(OC)cc23)nc1,inactive: 8.59% [at 57.5 µM]
